PubChem BioAssay AID1259296 | Sanger Institute | 2017
In all, the deposit lists 160 reagents; this is a part drawn at random. 45 of all reagents (28%) were called active. 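Calls are per single siRNA duplex in CAR1 cells only; how the synergy score is calculated is not stated.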 Reagents against one gene are numbered here. No viability above 1 is reported: the scale is capped. The record does not give: the amount of reagent, the time to read-out.

- Purpose: 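Kinase genes whose silencing works synergistically with colorectal cancer drugs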 (follow-up of hits)
- Cell system: CAR1 human colorectal cancer cells
- Reagent: single siRNA against human genes
- Challenge: anchor drugs BYL719 at 1 µM, cetuximab at 5 µg/ml or trametinib at 10 nM, or DMSO vehicle, added a day after transfection
- Measurement: 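Viability of cells versus control pool 2 (non-targeting) averaged across replicates; for every anchor drug, synergy score comparing joint effect with drug or siRNA alone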
- Direction: synergy with BYL719 and synergy with cetuximab and synergy with trametinib: higher = stronger synergy between knock-down and drug; viability, siRNA plus trametinib and viability, siRNA alone (DMSO): higher = more viable cells
- Active means: 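Active when synergy exceeds 0.10 with BYL719, cetuximab or trametinib, any one sufficing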

gene,reagent no.,synergy with BYL719,synergy with cetuximab,synergy with trametinib,"viability, siRNA plus trametinib (fraction of control)","viability, siRNA alone (DMSO) (fraction of control)",Outcome
"BRAF (B-Raf proto-oncogene, serine/threonine kinase)",1,0.0884,-0.0536,0.0643,0.523,0.587,inactive
"BRAF (B-Raf proto-oncogene, serine/threonine kinase)",2,0.131,-0.0244,0.00563,0.923,0.928,active
"BRAF (B-Raf proto-oncogene, serine/threonine kinase)",3,0.0872,0.0335,0.185,0.452,0.636,active
"BRAF (B-Raf proto-oncogene, serine/threonine kinase)",4,0.0732,0.0505,0.0416,0.748,0.789,inactive
SF3B1 (splicing factor 3b subunit 1),1,-0.152,-0.0589,0.000962,0.547,0.548,inactive
SF3B1 (splicing factor 3b subunit 1),2,-0.055,-0.0855,0.0664,0.407,0.473,inactive
SF3B1 (splicing factor 3b subunit 1),3,0.0429,0.0669,0.0802,0.745,0.825,inactive
SF3B1 (splicing factor 3b subunit 1),4,-0.149,-0.08,-0.102,0.626,0.524,inactive
